The test concerns P388 leukemia ip, CD2F1 mice, survival T/C. As to the kind of experiment: NCI In Vivo Anticancer Drug Screen. Data for tumor model P388 Leukemia (intraperitoneal) in CD2F1 (CDF1) mice. The following applies: T/C endpoint: median survival time, higher T/C = longer survival.
[1] abbreviates: dose: 200.0 mg/kg/injection, schedule: Q01DX009 (ip), vehicle: Klucel (hydroxypropylcellulose) (HPC).
[2] abbreviates: dose: 50.0 mg/kg/injection, schedule: Q01DX009 (ip), vehicle: saline.
Setting [3] is: dose: 100.0 mg/kg/injection, schedule: Q01DX005 (ip), vehicle: Klucel (hydroxypropylcellulose) (HPC).
The mark [4] stands for this setting: dose: 200.0 mg/kg/injection, schedule: Q01DX005 (ip), vehicle: Klucel (hydroxypropylcellulose) (HPC).
[5] abbreviates: dose: 240.0 mg/kg/injection, schedule: Q01DX005 (ip), vehicle: saline with Tween-80.

The list is a part of this screen's results and no random one: it is rich in T/C values a quarter to a half above the control, in often repeated tests (any T/C) and in doses without a T/C. Other doses and runs of a compound stand elsewhere. T/C is the treated group as % of the vehicle group. Some doses have a count of surviving animals in place of a T/C: the source holds a T/C of zero for them, seemingly a mark for toxic or unscored doses. Some survivor counts are full or nearly so, which does not show that the dose was tolerated: the source hardly ever lists a survival T/C far under the control, and the zero likely stands for such cases as well. Survivors were counted at the toxicity check, usually on the fifth day, unless a day is given; later deaths do not show. Schedules are NCI's codes, read here as Q, the interval in days (D) or hours (H), X, the number of doses. Some doses were run more than once; their values stand side by side, smallest first. For survival time, this PubChem deposit counts one and a half times the control or more as active, and values a quarter to a half above the control carry no call in these data; other NCI protocols may use other cut-offs. Some T/C values are followed by the survivors on the day toxicity was checked, most often the fifth; without a count, all were alive then.

For the molecule `O=C(Sc1ccccc1)C1CC=CCC1` (stereo not drawn), under setting [1], the survivor count is recorded as 0 of 6.
In the case of `N#C/C(=C\c1ccc(Cl)cc1)c1ccccc1`, the survivor count under setting [2] is 6 of 6.
Take `O=S(=O)(c1ccc(N=C=S)cc1)c1ccc(N=C=S)cc1`: the T/C (dose: 50.0 mg/kg/injection, schedule: Q01DX005 (ip), vehicle: Klucel (hydroxypropylcellulose) (HPC)) is 125 [5 of 6 alive] and 126 % of control; the T/C under setting [3] was 128 % of control [5 of 6 alive]. Besides, the survivor count was 6 of 6 under setting [3]; 0 of 6 and 2 of 6 under setting [4].
As for `CCN(CC)CCNc1c(C)ccc2cccnc12`, the survivor count is reported as 1 of 5 (dose: 100.0 mg/kg/injection, schedule: Q01DX005 (ip), vehicle: saline) and 0 of 5 (dose: 200.0 mg/kg/injection, schedule: Q01DX005 (ip), vehicle: saline).
In the case of `Nc1ccc(-c2ccc(N)c(Cl)c2)cc1Cl`, the survivor count (dose: 400.0 mg/kg/injection, schedule: Q01DX009 (ip), vehicle: saline with Tween-80) is 1 of 6.
For the molecule `Cn1c(=O)[nH]c(N)c(C(=O)CCl)c1=O`, under setting [5], the survivor count is given as 0 of 6.
For the molecule `CNC(=O)Oc1cccc(N=CN(C)C)c1`, the survivor count runs as follows: (dose: 7.5 mg/kg/injection, schedule: Q01DX005 (ip), vehicle: saline) 0 of 6; (dose: 15.0 mg/kg/injection, schedule: Q01DX005 (ip), vehicle: saline) 0 of 6; (dose: 30.0 mg/kg/injection, schedule: Q01DX005 (ip), vehicle: saline) 0 of 6; (dose: 60.0 mg/kg/injection, schedule: Q01DX005 (ip), vehicle: saline) 0 of 6; (dose: 120.0 mg/kg/injection, schedule: Q01DX005 (ip), vehicle: saline) 0 of 6; (dose: 240.0 mg/kg/injection, schedule: Q01DX005 (ip), vehicle: saline) 0 of 6.
On to `Nc1ncnc2c1ncn2C1OC(COC2C(O)C(OC3OC(CO)C(O)C(O)C3N)C(O)C(OS(=O)(=O)O)C2OC(=O)[C@@H](N)CO)C(O)C1O` (stereo partly drawn), for which the survivor count (dose: 2.5 mg/kg/injection, schedule: Q01DX005 (ip), vehicle: Klucel (hydroxypropylcellulose) (HPC)) is listed as 2 of 6; the survivor count (dose: 5.0 mg/kg/injection, schedule: Q01DX005 (ip), vehicle: Klucel (hydroxypropylcellulose) (HPC)) was 0 of 6; the survivor count (dose: 10.0 mg/kg/injection, schedule: Q01DX005 (ip), vehicle: Klucel (hydroxypropylcellulose) (HPC)) is 0 of 6.
Regarding `CN(C)C1C(O)C2Oc3c(cc(O)c4c3C(=O)c3cc5c(c(O)c3C4=O)C(OCC3COC(C)(C)O3)CC(C)(O)C5)C(C)(O2)C1O` (stereo not drawn), the survivor count (dose: 32.0 mg/kg/injection, schedule: Q01DX009 (ip), vehicle: other) was 1 of 6.
As for `CCOC(=O)c1c(OC)c(-c2ccccc2)c(=O)n2c3ccccc3n(C)c12`, under setting [5], the survivor count was 6 of 6.
`COc1ccc(-c2ccc(OC)c(=O)cc2)c(OC)c1OC`: the survivor count under setting [4] is recorded as 3 of 6.
Turning to `CN=C(NC)c1ccc(NC(=O)c2ccc(C(=O)Nc3ccc(C(=NC)NC)c(OC)c3)c(Cl)c2)cc1OC`, the survivor count by setting is: (dose: 6.25 mg/kg/injection, schedule: Q01DX005 (ip), vehicle: saline with Tween-80) 0 of 6; (dose: 12.5 mg/kg/injection, schedule: Q01DX005 (ip), vehicle: saline with Tween-80) 0 of 6; (dose: 25.0 mg/kg/injection, schedule: Q01DX005 (ip), vehicle: saline with Tween-80) 0 of 6; (dose: 50.0 mg/kg/injection, schedule: Q01DX005 (ip), vehicle: saline with Tween-80) 0 of 6; (dose: 100.0 mg/kg/injection, schedule: Q01DX005 (ip), vehicle: saline with Tween-80) 0 of 6; (dose: 200.0 mg/kg/injection, schedule: Q01DX005 (ip), vehicle: saline with Tween-80) 0 of 6.
Take `O=C(NC(=S)Nc1cccc2c(O)cccc12)c1cccc(Br)c1`: the survivor count runs as follows: (dose: 60.0 mg/kg/injection, schedule: Q01DX005 (ip), vehicle: saline with Tween-80) 6 of 6; (dose: 120.0 mg/kg/injection, schedule: Q01DX005 (ip), vehicle: saline with Tween-80) 6 of 6.
In the case of `N#CCc1ccc(Cl)c(Cl)c1`, the survivor count (dose: 50.0 mg/kg/injection, schedule: Q04DX003 (ip), vehicle: saline with Tween-80) is 3 of 6.
Consider `Cc1c2oc3c(C)ccc(C(=O)NC4C(=O)NC(C(C)C)C(=O)N5CCCC5C(=O)N(C)CC(=O)N(C)C(C(C)C)C(=O)OC4C)c3nc-2c(C(=O)NC2C(=O)NC(C(C)C)C(=O)N3CCC3C(=O)N(C)CC(=O)N(C)C(C(C)C)C(=O)OC2C)c(N)c1=O` (stereo not drawn), for which the T/C by setting is: (dose: 0.1 mg/kg/injection, schedule: Q01DX009 (ip), vehicle: water) 142 % of control; (dose: 0.6 mg/kg/injection, schedule: Q04DX003 (ip), vehicle: saline) 128 % of control; (dose: 1.2 mg/kg/injection, schedule: Q04DX003 (ip), vehicle: saline) 137 % of control; (dose: 6.3 micrograms/kg/injection, schedule: Q01DX009 (ip), vehicle: water) 149 % of control; (dose: 25.0 micrograms/kg/injection, schedule: Q01DX009 (ip), vehicle: saline) 140 % of control. The survivor count (dose: 0.2 mg/kg/injection, schedule: Q01DX009 (ip), vehicle: water) was 6 of 6; the survivor count (dose: 0.4 mg/kg/injection, schedule: Q01DX009 (ip), vehicle: water) is 6 of 6; the survivor count (dose: 0.8 mg/kg/injection, schedule: Q01DX009 (ip), vehicle: water) was 0 of 6; the survivor count (dose: 1.6 mg/kg/injection, schedule: Q01DX009 (ip), vehicle: water) is 0 of 6; the survivor count (dose: 200.0 micrograms/kg/injection, schedule: Q01DX009 (ip), vehicle: water) is 6 of 6; the survivor count (dose: 417.0 micrograms/kg/injection, schedule: Q01DX009 (ip), vehicle: saline + alcohol) was 8 of 8.
On to `CN(CCN(C)C(=S)SCc1ccccc1)C(=S)SCc1ccccc1`, for which the survivor count runs as follows: (dose: 50.0 mg/kg/injection, schedule: Q01DX009 (ip), vehicle: Klucel (hydroxypropylcellulose) (HPC)) 6 of 6; (dose: 100.0 mg/kg/injection, schedule: Q01DX009 (ip), vehicle: Klucel (hydroxypropylcellulose) (HPC)) 6 of 6; under setting [1], 6 of 6.
Consider `CC1CN1P(=O)(N1CCCC1)N1CC1C` (stereo not drawn), for which the T/C was 130 % of control (dose: 10.0 mg/kg/injection, schedule: Q01DX009 (ip), vehicle: saline); 143 % of control (dose: 15.0 mg/kg/injection, schedule: Q01DX009 (ip), vehicle: saline); 137 % of control (dose: 44.0 mg/kg/injection, schedule: Q04DX003 (ip), vehicle: saline); 131 % of control under setting [2]; 145 % of control (dose: 50.0 mg/kg/injection, schedule: Q04DX003 (ip), vehicle: saline). Under “dose: 150.0 mg/kg/injection, schedule: Q04DX003 (ip), vehicle: saline”, the survivor count was 6 of 6.
`NC(=S)N/N=C1/C(=O)N(c2ccc(S(N)(=O)=O)cc2)C(=O)C1C(=O)Nc1ccc(S(N)(=O)=O)cc1` (stereo not drawn): the survivor count reads like this: (dose: 200.0 mg/kg/injection, schedule: Q04DX002 (ip), vehicle: saline with Tween-80) 1 of 6; (dose: 400.0 mg/kg/injection, schedule: Q04DX002 (ip), vehicle: saline with Tween-80) 0 of 6.
`C[O][Sn]([O][Sn]([Cl])([c]1ccccc1)[c]1ccccc1)([c]1ccccc1)[c]1ccccc1`: the survivor count by setting is: (dose: 100.0 mg/kg/injection, schedule: Q04DX003 (ip), vehicle: saline) 1 of 6; (dose: 200.0 mg/kg/injection, schedule: Q04DX003 (ip), vehicle: saline) 0 of 6; (dose: 400.0 mg/kg/injection, schedule: Q04DX003 (ip), vehicle: saline) 0 of 6. Moreover, the T/C is, setting by setting: (dose: 200.0 mg/kg/injection, schedule: Q04DX003 (ip), vehicle: suspension in saline) 131 % of control; (dose: 400.0 mg/kg/injection, schedule: Q04DX003 (ip), vehicle: suspension in saline) 134 % of control.

(Values after PubChem BioAssay AID330 (DTP/NCI, 2004).)
